This is one part of the list.
Legend:
Assay in all cases: log2 fold change, soluble protein after heating vs DMSO (PISA); higher = thermal stabilisation; K562 cells, 10 uM, 30 min; active = over 0.2 and 3.5 SD of the protein, either way, in both replicates (recomputed)
[1] = compound: CC[C@@H]1C(=O)N(C)c2cnc(Nc3ccc(C(=O)NC4CCN(C)CC4)cc3OC)nc2N1C1CCCC1
Outline: (§1)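 K562 cells at 2×10^6 cells/mL were treated with 10 μM compound for 30 min. Aliquots were heated for 3 min across 48°C-58°C, pooled, and extracted in PBS with 0.5% NP-40 at 4°C; soluble protein was the supernatant after 21,000xg for 90 min. Soluble protein was quantified by TMTpro 16plex LC-MS/MS with channel sums equalised, and reported as log2 fold change in thermal stability against DMSO controls, with values from duplicates.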

Amino acid sequences for entries named in this document (tags omitted). A change or cut given only in a name is not applied to a line headed by its entry.
UniProt Q86YN1: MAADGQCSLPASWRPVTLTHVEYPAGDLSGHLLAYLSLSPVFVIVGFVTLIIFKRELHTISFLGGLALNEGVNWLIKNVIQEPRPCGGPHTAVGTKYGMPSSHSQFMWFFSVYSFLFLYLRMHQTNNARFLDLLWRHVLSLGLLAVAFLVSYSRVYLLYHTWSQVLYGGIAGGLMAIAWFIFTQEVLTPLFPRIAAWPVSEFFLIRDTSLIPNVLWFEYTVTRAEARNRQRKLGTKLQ
UniProt Q96BY6: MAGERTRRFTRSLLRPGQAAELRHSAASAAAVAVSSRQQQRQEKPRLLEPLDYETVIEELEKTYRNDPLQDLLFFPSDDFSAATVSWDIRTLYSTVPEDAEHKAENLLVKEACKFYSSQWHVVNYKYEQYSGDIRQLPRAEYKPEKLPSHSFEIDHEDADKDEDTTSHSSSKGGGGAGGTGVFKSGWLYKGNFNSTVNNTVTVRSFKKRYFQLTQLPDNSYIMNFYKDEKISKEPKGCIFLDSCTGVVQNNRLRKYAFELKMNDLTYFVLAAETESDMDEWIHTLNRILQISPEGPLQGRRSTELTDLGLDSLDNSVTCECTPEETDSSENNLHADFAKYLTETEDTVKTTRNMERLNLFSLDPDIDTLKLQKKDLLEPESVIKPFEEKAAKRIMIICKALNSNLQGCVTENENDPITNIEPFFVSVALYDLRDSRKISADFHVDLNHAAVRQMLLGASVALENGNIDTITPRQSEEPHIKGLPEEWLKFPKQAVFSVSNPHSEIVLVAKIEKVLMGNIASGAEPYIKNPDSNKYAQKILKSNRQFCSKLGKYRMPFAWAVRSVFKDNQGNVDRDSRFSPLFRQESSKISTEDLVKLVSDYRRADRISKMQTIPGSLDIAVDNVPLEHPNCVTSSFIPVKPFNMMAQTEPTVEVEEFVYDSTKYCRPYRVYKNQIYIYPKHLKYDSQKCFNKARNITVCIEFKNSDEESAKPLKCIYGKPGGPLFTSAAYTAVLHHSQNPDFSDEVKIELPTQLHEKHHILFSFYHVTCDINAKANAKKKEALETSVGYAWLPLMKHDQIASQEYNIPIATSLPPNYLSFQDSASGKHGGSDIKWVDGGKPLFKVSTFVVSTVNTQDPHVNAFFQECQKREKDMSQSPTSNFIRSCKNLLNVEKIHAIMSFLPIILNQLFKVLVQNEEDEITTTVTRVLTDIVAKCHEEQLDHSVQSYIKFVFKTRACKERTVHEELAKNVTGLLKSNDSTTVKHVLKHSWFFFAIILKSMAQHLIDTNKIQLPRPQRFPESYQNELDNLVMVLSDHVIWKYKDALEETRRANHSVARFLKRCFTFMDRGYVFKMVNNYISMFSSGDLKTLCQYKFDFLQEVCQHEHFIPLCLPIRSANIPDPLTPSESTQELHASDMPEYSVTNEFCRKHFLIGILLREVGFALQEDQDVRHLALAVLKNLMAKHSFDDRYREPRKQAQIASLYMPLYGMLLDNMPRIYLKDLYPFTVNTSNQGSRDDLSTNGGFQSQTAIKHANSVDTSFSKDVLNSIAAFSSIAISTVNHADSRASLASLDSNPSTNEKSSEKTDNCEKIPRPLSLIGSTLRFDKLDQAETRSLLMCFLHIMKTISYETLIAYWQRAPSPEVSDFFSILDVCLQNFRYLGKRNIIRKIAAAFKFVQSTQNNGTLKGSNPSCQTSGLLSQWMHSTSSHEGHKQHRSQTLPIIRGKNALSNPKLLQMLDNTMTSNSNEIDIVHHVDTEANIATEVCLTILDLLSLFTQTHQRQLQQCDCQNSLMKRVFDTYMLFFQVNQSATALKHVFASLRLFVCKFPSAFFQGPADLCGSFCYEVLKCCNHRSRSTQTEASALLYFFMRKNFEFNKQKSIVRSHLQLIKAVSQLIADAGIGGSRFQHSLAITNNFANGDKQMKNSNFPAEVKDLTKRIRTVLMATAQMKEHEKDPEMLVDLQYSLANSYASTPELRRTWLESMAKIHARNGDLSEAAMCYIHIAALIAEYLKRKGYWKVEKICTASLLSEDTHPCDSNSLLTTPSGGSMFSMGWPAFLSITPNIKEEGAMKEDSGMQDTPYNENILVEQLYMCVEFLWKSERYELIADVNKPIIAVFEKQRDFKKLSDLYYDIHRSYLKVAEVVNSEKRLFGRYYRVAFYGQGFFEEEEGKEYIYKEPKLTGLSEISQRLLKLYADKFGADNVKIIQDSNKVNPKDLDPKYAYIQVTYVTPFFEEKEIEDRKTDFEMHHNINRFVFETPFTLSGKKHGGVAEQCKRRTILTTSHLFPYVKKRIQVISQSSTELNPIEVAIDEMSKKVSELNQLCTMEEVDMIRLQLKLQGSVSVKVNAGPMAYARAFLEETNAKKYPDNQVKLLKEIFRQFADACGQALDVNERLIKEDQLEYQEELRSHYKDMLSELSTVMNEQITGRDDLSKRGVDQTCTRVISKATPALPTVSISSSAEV
UniProt Q6XUX3: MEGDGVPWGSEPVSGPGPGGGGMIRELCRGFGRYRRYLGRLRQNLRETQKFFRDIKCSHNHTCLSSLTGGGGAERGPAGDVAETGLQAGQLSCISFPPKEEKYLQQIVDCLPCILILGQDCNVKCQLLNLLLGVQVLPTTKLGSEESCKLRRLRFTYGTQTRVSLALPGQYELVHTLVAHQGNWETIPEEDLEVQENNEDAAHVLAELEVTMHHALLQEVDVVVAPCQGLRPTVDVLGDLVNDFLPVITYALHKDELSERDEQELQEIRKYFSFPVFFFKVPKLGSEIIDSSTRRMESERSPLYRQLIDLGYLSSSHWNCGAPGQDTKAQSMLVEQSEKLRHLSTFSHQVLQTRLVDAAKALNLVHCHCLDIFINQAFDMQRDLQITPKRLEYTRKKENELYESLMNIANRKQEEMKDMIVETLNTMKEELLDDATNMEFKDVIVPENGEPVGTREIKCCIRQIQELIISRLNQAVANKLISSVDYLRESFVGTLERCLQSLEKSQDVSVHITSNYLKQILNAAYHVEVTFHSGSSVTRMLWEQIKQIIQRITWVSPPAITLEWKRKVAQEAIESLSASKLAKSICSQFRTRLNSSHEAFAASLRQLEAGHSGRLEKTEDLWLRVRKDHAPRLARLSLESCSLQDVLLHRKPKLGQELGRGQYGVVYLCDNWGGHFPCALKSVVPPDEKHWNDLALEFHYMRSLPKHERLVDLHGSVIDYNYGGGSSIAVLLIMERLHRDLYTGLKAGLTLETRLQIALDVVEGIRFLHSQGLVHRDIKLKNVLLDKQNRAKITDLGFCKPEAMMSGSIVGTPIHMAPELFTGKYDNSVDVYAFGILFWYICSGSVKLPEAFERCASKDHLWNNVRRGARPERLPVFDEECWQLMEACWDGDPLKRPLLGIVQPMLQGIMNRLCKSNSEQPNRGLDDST
UniProt Q9UPQ8: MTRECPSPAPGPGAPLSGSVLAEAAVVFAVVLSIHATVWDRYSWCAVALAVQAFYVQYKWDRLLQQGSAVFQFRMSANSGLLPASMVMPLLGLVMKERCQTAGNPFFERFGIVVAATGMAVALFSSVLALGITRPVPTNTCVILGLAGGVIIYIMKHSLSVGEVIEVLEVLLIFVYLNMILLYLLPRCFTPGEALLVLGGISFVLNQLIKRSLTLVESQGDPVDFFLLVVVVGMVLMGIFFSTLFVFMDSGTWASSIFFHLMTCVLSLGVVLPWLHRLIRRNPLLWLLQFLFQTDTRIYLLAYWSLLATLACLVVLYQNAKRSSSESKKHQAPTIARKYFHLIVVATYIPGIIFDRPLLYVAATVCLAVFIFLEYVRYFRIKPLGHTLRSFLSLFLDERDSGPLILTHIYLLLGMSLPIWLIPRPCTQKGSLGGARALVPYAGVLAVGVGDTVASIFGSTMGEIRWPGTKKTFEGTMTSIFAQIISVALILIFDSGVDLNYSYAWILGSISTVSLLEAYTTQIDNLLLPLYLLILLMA
UniProt Q9BVM2: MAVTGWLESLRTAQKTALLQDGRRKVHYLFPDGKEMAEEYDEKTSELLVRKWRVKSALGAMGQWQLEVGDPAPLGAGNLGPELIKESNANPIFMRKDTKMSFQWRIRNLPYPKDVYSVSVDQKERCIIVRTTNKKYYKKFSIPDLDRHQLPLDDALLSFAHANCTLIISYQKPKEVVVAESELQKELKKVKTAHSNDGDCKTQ
UniProt Q8WTR2: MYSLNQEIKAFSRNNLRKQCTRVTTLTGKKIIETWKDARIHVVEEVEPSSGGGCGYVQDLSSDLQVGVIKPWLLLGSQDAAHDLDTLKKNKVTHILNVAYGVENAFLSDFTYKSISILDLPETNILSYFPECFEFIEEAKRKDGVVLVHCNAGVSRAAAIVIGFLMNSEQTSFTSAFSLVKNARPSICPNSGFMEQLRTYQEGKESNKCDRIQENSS
UniProt Q9H8V3: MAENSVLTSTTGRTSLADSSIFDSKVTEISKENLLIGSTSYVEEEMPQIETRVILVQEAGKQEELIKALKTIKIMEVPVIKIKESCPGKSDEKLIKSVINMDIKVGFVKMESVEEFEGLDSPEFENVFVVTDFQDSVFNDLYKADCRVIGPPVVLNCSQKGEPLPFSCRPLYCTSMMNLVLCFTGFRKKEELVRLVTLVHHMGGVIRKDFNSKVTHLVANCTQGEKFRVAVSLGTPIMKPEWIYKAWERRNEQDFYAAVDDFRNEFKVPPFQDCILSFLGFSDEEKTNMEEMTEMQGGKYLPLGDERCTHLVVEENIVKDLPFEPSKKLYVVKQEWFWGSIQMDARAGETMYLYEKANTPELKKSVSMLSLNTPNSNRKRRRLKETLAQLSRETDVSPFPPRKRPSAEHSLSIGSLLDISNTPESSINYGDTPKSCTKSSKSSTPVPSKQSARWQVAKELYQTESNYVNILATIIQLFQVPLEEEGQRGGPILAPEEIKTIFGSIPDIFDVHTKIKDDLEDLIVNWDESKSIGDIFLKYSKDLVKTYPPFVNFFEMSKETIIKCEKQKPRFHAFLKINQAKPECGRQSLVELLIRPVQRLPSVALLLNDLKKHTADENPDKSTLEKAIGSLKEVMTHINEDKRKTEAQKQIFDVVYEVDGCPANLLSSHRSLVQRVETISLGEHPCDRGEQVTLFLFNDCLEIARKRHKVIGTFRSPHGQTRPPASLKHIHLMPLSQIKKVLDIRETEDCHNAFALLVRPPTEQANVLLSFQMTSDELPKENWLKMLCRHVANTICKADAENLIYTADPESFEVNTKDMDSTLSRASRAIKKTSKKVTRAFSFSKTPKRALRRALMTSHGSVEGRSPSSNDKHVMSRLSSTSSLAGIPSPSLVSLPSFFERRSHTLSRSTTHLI
UniProt Q4LDG9: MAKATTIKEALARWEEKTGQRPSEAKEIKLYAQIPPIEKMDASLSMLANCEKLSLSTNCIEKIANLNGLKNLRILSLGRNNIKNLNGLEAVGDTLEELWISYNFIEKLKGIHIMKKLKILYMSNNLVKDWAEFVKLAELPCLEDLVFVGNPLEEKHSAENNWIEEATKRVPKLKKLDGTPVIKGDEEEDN
UniProt Q96FN9: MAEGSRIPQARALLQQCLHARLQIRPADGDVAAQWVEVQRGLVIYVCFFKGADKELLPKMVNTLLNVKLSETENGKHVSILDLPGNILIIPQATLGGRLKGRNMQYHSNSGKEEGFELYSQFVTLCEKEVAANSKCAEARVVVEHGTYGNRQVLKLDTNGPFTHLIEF
UniProt Q9Y5T4: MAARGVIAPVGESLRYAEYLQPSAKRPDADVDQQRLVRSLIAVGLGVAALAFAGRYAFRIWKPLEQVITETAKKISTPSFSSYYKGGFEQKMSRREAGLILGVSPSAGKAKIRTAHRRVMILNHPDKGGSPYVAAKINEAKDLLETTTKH
UniProt Q7L591: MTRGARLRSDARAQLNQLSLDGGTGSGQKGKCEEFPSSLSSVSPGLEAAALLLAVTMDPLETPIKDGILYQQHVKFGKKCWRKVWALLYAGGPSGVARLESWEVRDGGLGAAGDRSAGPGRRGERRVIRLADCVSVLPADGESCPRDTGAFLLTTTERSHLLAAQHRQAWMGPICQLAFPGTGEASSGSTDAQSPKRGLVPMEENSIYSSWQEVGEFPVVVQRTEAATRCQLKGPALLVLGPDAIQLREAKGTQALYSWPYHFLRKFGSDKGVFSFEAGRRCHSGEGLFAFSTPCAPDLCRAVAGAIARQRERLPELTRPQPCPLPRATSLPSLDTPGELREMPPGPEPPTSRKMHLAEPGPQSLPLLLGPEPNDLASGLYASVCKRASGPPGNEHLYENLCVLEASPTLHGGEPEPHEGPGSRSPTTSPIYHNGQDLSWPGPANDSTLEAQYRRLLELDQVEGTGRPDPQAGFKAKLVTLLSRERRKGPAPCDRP
UniProt O95147: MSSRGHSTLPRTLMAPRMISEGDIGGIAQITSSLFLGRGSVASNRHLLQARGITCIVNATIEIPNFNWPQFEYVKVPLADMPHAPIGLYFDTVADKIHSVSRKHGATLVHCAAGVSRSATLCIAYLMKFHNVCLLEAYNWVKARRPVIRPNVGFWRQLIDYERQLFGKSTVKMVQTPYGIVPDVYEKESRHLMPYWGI
UniProt P51808: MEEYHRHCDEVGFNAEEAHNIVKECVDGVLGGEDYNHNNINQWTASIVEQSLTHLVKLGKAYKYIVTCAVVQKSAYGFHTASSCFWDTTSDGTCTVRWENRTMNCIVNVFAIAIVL

[2] = compound: CC[C@H](C)N1C=C(C2=C(C=C(C=C21)C3=CN=C(C=C3)N4CCNCC4)C(=O)NCC5=C(C=C(NC5=O)C)C)C
Outline: as §1

[3] = compound: CCn1cc(-c2ccnc3[nH]c(-c4cccc(CN(C)C)c4)cc23)c(-c2ccc(NC(=O)N(C)C)cc2)n1
Outline: as §1

[4] = compound: CN(C)CC(=O)Nc1ccc2[nH]c(=O)c3ccccc3c2c1
Outline: as §1

rosiglitazone = compound: CN(CCOC1=CC=C(C=C1)C[C@H]2C(=O)NC(=O)S2)C3=CC=CC=N3 (racemic) [rosiglitazone]
Outline: as §1

[5] = compound: CN1CCC(CNc2ccc3ncc(-c4cccc(OC(F)(F)F)c4)n3n2)CC1
Outline: as §1

volasertib = compound: CC[C@@H]1C(=O)N(C)c2cnc(Nc3ccc(C(=O)N[C@H]4CC[C@H](N5CCN(CC6CC6)CC5)CC4)cc3OC)nc2N1C(C)C [volasertib]
Outline: as §1

epoxomicin = compound: CC[C@H](C)[C@@H](C(=O)N[C@@H]([C@@H](C)O)C(=O)N[C@@H](CC(C)C)C(=O)[C@]1(CO1)C)NC(=O)[C@H]([C@@H](C)CC)N(C)C(=O)C [epoxomicin]
Outline: as §1

[6] = compound: CN1C2=C(C3=C1C(=O)N(N=C3)CC4=CC(=CC=C4)N)SC(=C2)S(=O)C
Outline: as §1

[7] = compound: CCn1c(C(=O)N(C2CC2)C2CC2)cc2c3c(ncn3C)c(Nc3cc(C)n(C)n3)nc21
Outline: as §1

Measured: log2 fold change

DPY19L2 (UniProt Q6NUT2)
inactive: [1] 0.074 | [2] -0.136 | [3] 0.003 | [4] 0.039 | rosiglitazone -0.005 | [5] 0.015

DNAJB1 (UniProt P25685)
active: volasertib -0.222
inactive: [1] 0.011 | [2] 0.064 | epoxomicin -0.041 | [3] -0.026 | [4] -0.01 | [6] -0.064 | [5] -0.042

DONSON (UniProt Q9NYP3)
inactive: [1] 0.078 | [2] 0.067 | epoxomicin -0.085 | [3] -0.065 | [4] 0.038 | [6] -0.206 | [5] -0.176

ECH1 (UniProt Q13011)
inactive: [1] 0.019 | volasertib 0.276 | [2] 0.024 | epoxomicin 0.036 | [3] -0.021 | [4] 0.023 | [6] -0.041
active: [5] 0.694

DOLPP1 (UniProt Q86YN1)
inactive: [1] -0.062 | volasertib -0.008 | [2] -0.052 | [4] 0.133

DNAJC24 (UniProt Q6P3W2)
inactive: [1] -0.318 | volasertib -0.244 | [2] 0.029 | epoxomicin 0.034 | [4] -0.027 | [6] -0.284

DOCK10 (UniProt Q96BY6)
inactive: [1] 0.328 | [2] -0.197 | [4] -0.013

DNAJB2 (UniProt P25686)
inactive: [1] 0.011 | volasertib 0.151 | epoxomicin 0.032 | [3] 0.135 | [6] 0.042 | [5] -0.179

DNM1L isoform 2 (UniProt O00429)
inactive: [1] -0.024 | volasertib -0.154 | [2] -0.045 | [7] 0.011 | [3] 0.065 | [4] 0.132 | rosiglitazone 0.136 | [6] -0.098 | [5] -0.094

DSTYK (UniProt Q6XUX3)
inactive: [1] 0.076 | [2] 0.16 | epoxomicin -0.137 | [7] -0.18 | [3] 0.005 | [4] 0.046 | rosiglitazone 0.067 | [6] -0.096 | [5] -0.247

DOCK8 (UniProt Q8NF50)
inactive: [1] 0.01 | [2] 0.004 | epoxomicin 0.119 | [3] -0.094 | [4] -0.009 | [6] 0.258 | [5] 0.137

DVL2 (UniProt O14641)
inactive: [1] 0.181 | volasertib -0.253 | epoxomicin -0.163 | [3] -0.067 | [5] 0.204

E4F1 (UniProt Q66K89)
inactive: volasertib 0 | epoxomicin 0.035 | [3] -0.029 | [4] -0.103 | rosiglitazone -0.192 | [6] -0.023 | [5] -0.009

DOLK (UniProt Q9UPQ8)
inactive: [2] -0.041 | epoxomicin 0.037 | [7] -0.015 | rosiglitazone 0.089

DYNC1I1 (UniProt O14576)
inactive: volasertib 0.047 | epoxomicin -0.005 | [4] -0.035

DPCD (UniProt Q9BVM2)
inactive: [3] 0.02 | [4] -0.021 | [5] -0.011

DNAJC4 (UniProt Q9NNZ3)
inactive: volasertib -0.149

DNAJB1 (UniProt M0R128)
inactive: [4] -0.038

DNM1 (UniProt Q05193)
inactive: epoxomicin -0.334 | [7] 0.077 | [3] -0.026 | [4] -0.028 | [5] -0.222

DPYSL3 isoform 2 (UniProt Q14195)
inactive: volasertib 0.043 | [7] -0.21 | [3] -0.317 | [4] 0.33 | [6] -0.303 | [5] -0.11

DUSP19 (UniProt Q8WTR2)
inactive: [7] -0.088

ECT2 isoform 3 (UniProt Q9H8V3)
inactive: [1] -0.199 | epoxomicin 0.268

DNAJC30 (UniProt Q96LL9)
inactive: [7] 0.092

DRAP1 (UniProt E9PQX9)
inactive: volasertib -0.055 | [7] -0.05

DNPEP (UniProt C9JBE1)
inactive: volasertib 0.124 | epoxomicin -0.131 | [7] 0.052 | [3] 0.046 | [4] 0.072 | rosiglitazone -0.046 | [6] 0.036 | [5] -0.473

DROSHA (UniProt Q9NRR4)
inactive: epoxomicin 0.06

DUS1L (UniProt Q6P1R4)
inactive: [7] 0.177 | [3] -0.129 | [5] -0.047

DUSP9 (UniProt Q99956)
inactive: [2] -0.386 | epoxomicin -0.177 | [7] -0.204 | [4] 0.036 | [6] 0.179

DNASE1L1 (UniProt P49184)
inactive: [7] -0.075

DNAL1 (UniProt Q4LDG9)
inactive: epoxomicin 0.082 | [4] 0.103 | [6] -0.256

EDRF1 (UniProt Q3B7T1)
inactive: [1] 0.046 | epoxomicin 0.009 | [3] -0.046 | [6] 0.006 | [5] -0.014

ECM1 isoform 2 (UniProt Q16610)
inactive: [2] 0.212 | [4] 0.332 | rosiglitazone 0.089

DUSP12 (UniProt V9GYV5)
inactive: epoxomicin -0.085 | [4] -0.125

DTD2 (UniProt Q96FN9)
inactive: volasertib -0.012 | [2] 0.192 | epoxomicin -0.056 | [7] -0.043 | [3] 0.023 | [4] 0.027 | [6] -0.092 | [5] 0.256

DYNC2LI1 isoform 2 (UniProt Q8TCX1)
inactive: volasertib -0.069 | epoxomicin 0.011 | [7] -0.038 | [4] -0.215

DNAJC15 (UniProt Q9Y5T4)
inactive: volasertib 0.125

DOK3 (UniProt Q7L591)
inactive: volasertib -0.482 | epoxomicin -0.054 | [7] -0.032 | [3] -0.023 | [4] 0.062 | rosiglitazone 0.123 | [6] -0.018 | [5] 0.144

DNAJB9 (UniProt Q9UBS3)
inactive: [7] -0.132 | [3] 0.197 | [5] -0.032

DNMT3B (UniProt Q9UBC3)
inactive: [3] -0.103 | [6] -0.317 | [5] -0.001

4 entries picked at random from the list so far:
DNM1L isoform 2 (UniProt O00429)
inactive: [1] -0.024 | volasertib -0.154 | [2] -0.045 | [7] 0.011 | [3] 0.065 | [4] 0.132 | rosiglitazone 0.136 | [6] -0.098 | [5] -0.094

DRAP1 (UniProt E9PQX9)
inactive: volasertib -0.055 | [7] -0.05

E4F1 (UniProt Q66K89)
inactive: volasertib 0 | epoxomicin 0.035 | [3] -0.029 | [4] -0.103 | rosiglitazone -0.192 | [6] -0.023 | [5] -0.009

DYNC1I1 (UniProt O14576)
inactive: volasertib 0.047 | epoxomicin -0.005 | [4] -0.035

(continued)

DUSP14 (UniProt O95147)
inactive: epoxomicin 0.358 | [7] -0.071 | [3] -0.039 | [4] 0.051 | rosiglitazone -0.016 | [6] -0.157 | [5] 0.24

DNAJB14 (UniProt H7C494)
inactive: volasertib 0.065 | [2] -0.039 | [3] -0.03 | [4] -0.03 | [6] -0.027 | [5] 0.068

DNPH1 (UniProt H0Y8X4)
inactive: volasertib 0.146 | [2] 0.056 | [7] -0.018 | [6] 0.01

EDEM2 (UniProt Q9BV94)
inactive: volasertib -0.159 | [2] -0.035 | epoxomicin -0.006 | [3] -0.087 | [4] -0.001 | [6] -0.003 | [5] 0.161

DNAJC25 (UniProt Q9H1X3)
inactive: volasertib 0.077 | [7] -0.122 | rosiglitazone 0.179

DYNLT3 (UniProt P51808)
inactive: [1] 0.182 | [2] -0.015 | rosiglitazone 0.059

DOP1A (UniProt Q5JWR5)
inactive: epoxomicin 0.069 | [4] 0.121
